PubChem BioAssay AID602196 – INSERM – 2012
Shown is a random part of about 23,000 deposited reagents. 455 of them (2%) were called active. 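Active includes both protection and sensitisation; some change values fall well beyond the stated -50 to +50 range.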 Further read-outs or replicates are left out here. The record does not give: the amount of reagent.

Test: 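Knock-downs that protect lung cancer cells from cisplatin or sensitise them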
System: human A549 lung cancer cells
Reagent: siRNA pair against human genes
Duration: 48 h transfection before cisplatin; time from cisplatin to read-out not stated
Conditions: cisplatin at a dose killing half of control-siRNA cells; exact dose and duration not given
Measured: 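Cisplatin cell death as a shift from the 50% death seen with control siRNA; siRNAs toxic or growth-blocking alone scored 0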
Direction: two-siRNA summed score (-2 to +2): higher = both siRNAs protect from cisplatin killing; -2 means both sensitise
Rule for the call: 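siRNAs harmful alone (LDH or WST-1) get 0; others get +1 for less and -1 for more cisplatin killing; genes are active when the two siRNAs give the same sign, summing to ±2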
Meaning of the calls: active = both siRNAs shift cisplatin killing the same way; inactive = no consistent shift, or siRNA harmful alone

gene,two-siRNA summed score (-2 to +2),outcome
AFF3,0,inactive
U2AF1,1,inactive
PLEKHH1,0,inactive
LOC149643,0,inactive
LOC440158,0,inactive
ARL6,0,inactive
SLC50A1,0,inactive
LOC442174,0,inactive
LOC400943 (retired record),0,inactive
TP53,0,inactive
MYO1B,0,inactive
PDE3A,0,inactive
PRR27,0,inactive
ALOX12P2,-1,inactive
FAM230J,0,inactive
CCDC197,-2,active
LOC400050,0,inactive
FCRLB,1,inactive
CCNO,0,inactive
LOC284988,0,inactive
EEF2,2,active
MSS51,0,inactive
LOC390250,0,inactive
SPOCK3,0,inactive
CEACAM19,0,inactive
MASP2,0,inactive
C1S,-1,inactive
LOC400763,0,inactive
TBX15,0,inactive
RPL28,1,inactive
LOC441147,0,inactive
KLHL41,0,inactive
LOC441726,0,inactive
LOC441699,0,inactive
LOC392584,0,inactive
LOC441727,1,inactive
DYNLRB1,0,inactive
NFATC3,0,inactive
LOC440120,0,inactive

A run of entries from the list above:
gene,two-siRNA summed score (-2 to +2),outcome
SLC50A1,0,inactive
LOC442174,0,inactive
LOC400943 (retired record),0,inactive
TP53,0,inactive
